Experimental data taken from patent publication US20120288536.
For some assays here: A negative result means that nothing was seen under these conditions. For some assays here: A weaker result is weaker than the reference pair of the same experiment. For some assays here: For at least one entry, the source does not settle the construct or the ends of the probe.

Protein sequences, listed by entry. Tags and fused reporters are not part of them.
UniProt P40763, whole entry: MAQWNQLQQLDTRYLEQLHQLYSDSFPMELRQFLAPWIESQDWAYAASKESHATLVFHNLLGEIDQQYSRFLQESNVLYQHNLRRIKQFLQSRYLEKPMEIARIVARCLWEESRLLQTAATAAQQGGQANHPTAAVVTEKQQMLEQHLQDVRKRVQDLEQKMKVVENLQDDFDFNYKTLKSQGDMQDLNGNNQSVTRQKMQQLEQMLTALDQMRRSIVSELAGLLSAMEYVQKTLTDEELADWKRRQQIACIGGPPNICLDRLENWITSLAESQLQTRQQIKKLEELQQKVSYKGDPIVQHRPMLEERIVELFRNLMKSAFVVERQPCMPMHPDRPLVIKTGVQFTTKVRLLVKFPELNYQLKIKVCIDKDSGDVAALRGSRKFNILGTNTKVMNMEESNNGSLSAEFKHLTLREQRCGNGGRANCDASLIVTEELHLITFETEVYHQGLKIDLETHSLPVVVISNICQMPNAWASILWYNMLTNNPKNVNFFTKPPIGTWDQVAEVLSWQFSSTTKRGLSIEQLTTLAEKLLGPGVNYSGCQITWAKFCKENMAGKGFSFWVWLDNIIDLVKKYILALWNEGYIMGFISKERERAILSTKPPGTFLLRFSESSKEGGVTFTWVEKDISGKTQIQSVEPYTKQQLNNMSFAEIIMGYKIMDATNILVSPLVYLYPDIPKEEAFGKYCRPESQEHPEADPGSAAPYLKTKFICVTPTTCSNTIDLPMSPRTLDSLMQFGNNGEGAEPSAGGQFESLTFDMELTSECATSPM

What was measured:
[1] = target: STAT3 (UniProt P40763); experiment: EMSA; conditions: variant of STAT3 decoy (hSIE)
[2] = target: pSTAT3 (tyrosine-phosphorylated STAT3) (UniProt P40763); experiment: SPR; conditions: LNA x3 at 5' end of sense and 3' end of antisense; LNA x2 at 3' end of sense and 5' end of antisense; C-18 spacer linking strands; decoy with 10 LNA did not bind STAT3; tested 5-80 uM; purified recombinant protein; synthetic backbone; variant of parent STAT3 decoy (PTO)
[3] = target: pSTAT3 (tyrosine-phosphorylated STAT3) (UniProt P40763); experiment: EMSA; conditions: one LNA at 5' end of one strand and one at 3' end of the other; C-18 spacer linking strands; bound as well as parent decoy; 6% PAGE-TBE, SYBR Gold; purified recombinant protein; synthetic backbone; variant of parent STAT3 decoy (PTO)
[4] = target: STAT3 (endogenous, UM-22B HNSCC cells) (UniProt P40763); experiment: activity in cells; conditions: protein in cells

Sequence	binding result [1]	also measured
CAGTTCACGTAAATC (double strand) [Mutant 5]	binds more weakly	–
CAGTTCACGTCAATC (double strand) [Mutant 9]	binds more weakly	–
CAGTTCCCGTAAATC (double strand) [Mutant 1]	binds more weakly	–
CAGTTCCCGTCAATC (double strand) [Mutant 6]	binds more weakly	–
CAGTTCCCTTAAATC (double strand) [SIE]	binds more weakly	–
CAGTTCCCTTCAATC (double strand) [Mutant 10]	binds more weakly	–
CATTTCACGTAAATC (double strand) [Mutant 2]	binds more weakly	–
CATTTCACGTCAATC (double strand) [Mutant 7]	binds more weakly	–
CATTTCCCGTAAATC (double strand) [LNA decoy]	–	binding result [2]: no binding
CATTTCCCGTAAATC (double strand) [LNA-1]	–	binding result [3]: binds
CATTTCCCGTAAATC (double strand) [parent STAT3 decoy (PTO)]	–	activity on this sequence ([4]; PS first three and last three bases of both strands, duplex inhibits hSIE luciferase reporter at 12.6 nM, single strands do not suffice, variant of STAT3 decoy (hSIE)): active
CATTTCCCGTAAATCGAAAGATTTACGGGAAATG [DH4S]	–	activity on this sequence ([4]; PS x3 at 5' end of one strand and 3' end of the other, downmodulation of hSIE reporter comparable to parent decoy, 12.6 nM, folded or branched DNA, variant of parent STAT3 decoy (PTO)): active
CATTTCCCGTCAATC (double strand) [Mutant 4]	binds more weakly	–
CATTTCCCTTCAATC (double strand) [Mutant 8]	binds more weakly	–
